The supplement of paper PMC4840960
Structures can show the parent of a compound that is named as a salt. ± gives the standard deviation of the averaged measurements. The list shows a part of the results. Plates or batches differ in their baseline, so values are only roughly comparable.

Test system: E18 rat cortical neuron-glia co-culture
Test: total nuclei (DAPI) / Olig2+ nuclei (ratio); higher = more depletion of OPC/OL lineage cells
Details: treatment time: 8 days (DIV5-DIV13)

Structure (SMILES)	total nuclei (1 µM)	total nuclei (5 µM)
CN1CCN(c2nc3cc(C(F)(F)F)ccc3n3cccc23)CC1	4.5	13.4
CNC(=C[N+](=O)[O-])NCCSCc1ccc(CN(C)C)o1 [Ranitidine]	3.3	4.2
O=C1Nc2ccccc2/C1=C1/Nc2ccccc2C1=O [Indirubin]	2.61	2.7
CN(C)CCC=C1c2ccccc2CCc2ccccc21 [Amitriptyline]	3.96	6.4
CC(C)/N=c1\cc2n(-c3ccc(Cl)cc3)c3ccccc3nc-2cc1Nc1ccc(Cl)cc1 [Clofazimine]	4.2	4.5
C[n+]1ccccc1C=NO [Pralidoxime]	2.75	2.9
Nc1nc2ccc(OC(F)(F)F)cc2s1 [Riluzole]	4.76	5.8
COC(=O)C1=C(C)NC(C)=C(C(=O)OCC(C)C)C1c1ccccc1[N+](=O)[O-] (stereo not given) [Nisoldipine]	4.19	> 40
O=C1[C@H](CC[C@H](O)c2ccc(F)cc2)[C@@H](c2ccc(O)cc2)N1c1ccc(F)cc1 [Ezetimibe]	4.59	3.9
CN1CC(=O)N2[C@H](c3ccc4c(c3)OCO4)c3[nH]c4ccccc4c3C[C@@H]2C1=O [Tadalafil]	4.53	3.8
CCOC(=O)[C@@]1(CCCCCCOc2ccc(Cl)cc2)CO1 [Etomoxir]	3.47	3.8
Nc1ccn([C@H]2CC[C@@H](CO)O2)c(=O)n1 [Zalcitabine]	2.8	2.7
CN(CCOc1ccc(CC2SC(=O)NC2=O)cc1)c1ccccn1 (stereo not given) [Rosiglitazone maleate]	4.99 ± 0.31	> 40
C[C@@H]1C[C@H]2[C@@H]3CCC4=CC(=O)C=C[C@]4(C)[C@@]3(F)[C@@H](O)C[C@]2(C)[C@@]1(O)C(=O)CO [Dexamethazone]	4.4	4.3
O=C(O[C@@H]1Cc2c(O)cc(O)cc2O[C@@H]1c1cc(O)c(O)c(O)c1)c1cc(O)c(O)c(O)c1 [Epigallocatechin gallate]	7.63	7.7
Cc1ccc(N(CC2=NCCN2)c2cccc(O)c2)cc1 [Phentolamine]	2.65	2.3
C#C[C@]1(O)CC[C@H]2[C@@H]3CCC4=Cc5oncc5C[C@]4(C)[C@H]3CC[C@@]21C [Danazol]	3.3	3.1
OCc1cccnc1 [Nicotinyl Alcohol]	2.7	2.9
NC[C@H](O)c1ccc(O)c(O)c1 [Norepinephrine]	3	2.8
COc1ccc(-c2cc(=O)c3c(OC)c(OC)c(OC)c(OC)c3o2)cc1OC [Nobiletin]	6.78	7
CCn1cc(C(=O)O)c(=O)c2cc(F)c(N3CCN(C)CC3)cc21 [Pefloxacin]	2.87	3
CCCCC(=O)O[C@H]1CC[C@H]2[C@@H]3CCc4cc(O)ccc4[C@H]3CC[C@]12C [Estradiol valerate]	2.7	4.5
CC(C)NCC(O)c1ccc(NS(C)(=O)=O)cc1 (stereo not given) [Sotalol]	5.2	4.1
COc1ccc(C(=O)NCc2ccc(OCCN(C)C)cc2)cc1OC [Itopride]	2.77	2.7

Structure (SMILES)	total nuclei (1 µM)	total nuclei (5 µM)
CC(C)(C(=O)O)c1ccc(C(O)CCCN2CCC(C(O)(c3ccccc3)c3ccccc3)CC2)cc1 (stereo not given) [Fexofenadine]	4.49	4.3
CC[C@H]1OC(=O)[C@H](C)C(=O)[C@H](C)[C@@H](O[C@@H]2O[C@H](C)C[C@H](N(C)C)[C@H]2O)[C@](C)(OC)C[C@@H](C)C(=O)[C@H](C)[C@H]2N(CCCCn3cnc(-c4cccnc4)c3)C(=O)O[C@]12C [Telithromycin]	4.7	> 40
C[C@@H](c1ncncc1F)[C@](O)(Cn1cncn1)c1ccc(F)cc1F [Voriconazole]	3.9	5.1
COC(=O)C1=C(C)NC(C)=C(C(=O)OCCN(C)Cc2ccccc2)C1c1cccc([N+](=O)[O-])c1 (stereo not given) [Nicardipine]	3.02	5.6
CS(=O)(=O)OCCCCOS(C)(=O)=O [Busulfan]	3.91	7.9
COc1ccccc1OCC(O)CN1CCN(CC(=O)Nc2c(C)cccc2C)CC1 (stereo not given) [Ranolazine]	5.49	5.1
CN(C)CCC(c1ccc(Br)cc1)c1ccccn1 (stereo not given) [Brompheniramine]	2.8	2.8
O=C(O)c1cc(-c2ccc(F)cc2F)ccc1O [Diflunisal]	3.73	4.2
CCOC(=O)C1=C(C)NC(C)=C(C(=O)OC)C1c1cccc([N+](=O)[O-])c1 (stereo not given) [Nitrendipine]	2.71	3.1
COc1c(N2CCNC(C)C2)c(F)cc2c(=O)c(C(=O)O)cn(C3CC3)c12 (stereo not given) [Gatifloxacin]	3.64	3.7
CCOC(=O)O[C@]1(C(=O)OCCl)CC[C@H]2[C@@H]3CCC4=CC(=O)C=C[C@]4(C)[C@H]3[C@@H](O)C[C@@]21C [Loteprednol etabonate]	2.9	3
c1cnc(N2CCN(Cc3ccc4c(c3)OCO4)CC2)nc1 [Piribedil]	3.62	3.5
NS(=O)(=O)c1cc2c(cc1C(F)(F)F)NCNS2(=O)=O [Hydroflumethiazide]	4.06	2.7
CCn1cc(C(=O)O)c(=O)c2ccc(C)nc21 [Nalidixic Acid]	3.51	3.9
CCN1CCN(c2cc3c(cc2F)c(=O)c(C(=O)O)cn3C2CC2)CC1 [Enrofloxacin]	2.63	2.8
COc1cc(NC(C)CCCN)c2ncccc2c1 (stereo not given) [Primaquine]	2.5	2.4
C=C[C@H]1CN2CC[C@H]1C[C@H]2[C@H](O)c1ccnc2ccc(OC)cc12 [Quinine]	3.69	3.4
COc1ccccc1OCCNCC(O)COc1cccc2[nH]c3ccccc3c12 (stereo not given) [Carvedilol]	4.12	10
CN1CCN(c2c(F)cc3c(=O)c(C(=O)O)cn4c3c2SCC4)CC1 [Rufloxacin]	8.84	3.9
O=C1c2cccc3c2[C@H](CCC3)CN1[C@@H]1CN2CCC1CC2 [Palonosetron]	2.7	3
Cc1c(O)cccc1C(=O)N[C@@H](CSc1ccccc1)[C@H](O)CN1C[C@H]2CCCC[C@H]2C[C@H]1C(=O)NC(C)(C)C [Nelfinavir]	4.3	28.1
CC(C)n1c(/C=C/C(O)CC(O)CC(=O)O)c(-c2ccc(F)cc2)c2ccccc21 (stereo not given) [Fluvastatin]	4.25	4.5
CN1CCC(=C2c3ccccc3CCc3sccc32)CC1 [Pizotyline]	4.62	5.4
COc1cc2nc(N3CCN(C(=O)C4COc5ccccc5O4)CC3)nc(N)c2cc1OC (stereo not given) [Doxazosin]	2.6	2.8

Taken from above:
total nuclei (1 µM), COC(=O)C1=C(C)NC(C)=C(C(=O)OCCN(C)Cc2ccccc2)C1c1cccc([N+](=O)[O-])c1 (stereo not given) [Nicardipine] is entered as 3.02
total nuclei (5 µM), CC[C@H]1OC(=O)[C@H](C)C(=O)[C@H](C)[C@@H](O[C@@H]2O[C@H](C)C[C@H](N(C)C)[C@H]2O)[C@](C)(OC)C[C@@H](C)C(=O)[C@H](C)[C@H]2N(CCCCn3cnc(-c4cccnc4)c3)C(=O)O[C@]12C [Telithromycin] is entered as > 40
total nuclei (1 µM), COc1cc2nc(N3CCN(C(=O)C4COc5ccccc5O4)CC3)nc(N)c2cc1OC (stereo not given) [Doxazosin] is entered as 2.6

(further entries)

Structure (SMILES)	total nuclei (1 µM)	total nuclei (5 µM)
C[C@@H]1C[C@H]2[C@@H]3CCC4=CC(=O)C=C[C@]4(C)[C@@]3(F)[C@@H](O)C[C@]2(C)[C@@]1(O)C(=O)CO [Dexamethasone]	2.65	5.7
Nc1c2c(nc3ccccc13)CCCC2 [Tacrine]	3.44	3.3
Cc1nc(=O)c2cc(CN(C)c3ccc(C(=O)N[C@@H](CCC(=O)O)C(=O)O)s3)ccc2[nH]1 [Raltitrexed]	9.32	18.9
CC(=O)/N=c1/sc(S(N)(=O)=O)nn1C [Methazolamide]	2.27	2.6
O=C(CCNNC(=O)c1ccncc1)NCc1ccccc1 [Nialamide]	2.82	2.8
COc1nc(C)nc(Cl)c1NC1=NCCN1 [Moxonidine]	7.17	6
CC(C)c1nc(CN(C)C(=O)N[C@H](C(=O)N[C@@H](Cc2ccccc2)C[C@H](O)[C@H](Cc2ccccc2)NC(=O)OCc2cncs2)C(C)C)cs1 [Ritonavir]	2.8	3.4
CC(C)(C)NC(=O)[C@@H]1C[C@@H]2CCCC[C@@H]2CN1C[C@@H](O)[C@H](Cc1ccccc1)NC(=O)[C@H](CC(N)=O)NC(=O)c1ccc2ccccc2n1 [Saquinavir]	2.64	3.4
CNS(=O)(=O)Cc1ccc2[nH]cc(CCN(C)C)c2c1 [Sumatriptan]	2.77	2.6
CN(C)CCOC(C)(c1ccccc1)c1ccccn1 (stereo not given) [Doxylamine]	2.79	2.8
Oc1ncnc2[nH]ncc12 [Allopurinol]	4.22	4.2
CN(C)CCc1c[nH]c2ccc(C[C@H]3COC(=O)N3)cc12 [Zolmitriptan]	2.72	2.8
CN(C/C=C/C#CC(C)(C)C)Cc1cccc2ccccc12 [Terbinafine]	2.53	> 40
C[C@H]1C[C@@H]2[C@H]([C@@H](O)C[C@@]3(C)[C@H]2CC[C@]3(O)C(=O)CO)[C@@]2(C)C=CC(=O)C=C12 [Methylprednisolone]	4.2	5.2
C[C@H](CCC(=O)O)[C@H]1CC[C@H]2[C@@H]3C(=O)C[C@@H]4CC(=O)CC[C@]4(C)[C@H]3CC(=O)[C@]12C [Dehydrocholic Acid]	3.06	2.8
COc1ccc(OC)c(C(O)CNC(=O)CN)c1 (stereo not given) [Midodrine]	3.76	2.8
CN(C)CCCN1c2ccccc2CCc2ccc(Cl)cc21 [Clomipramine]	3.33	3.3
CN(C)CCOC(c1ccccc1)c1ccccc1 [Diphenhydramine]	3.18	3
CC(C)(C)NC(=O)[C@@H]1CN(Cc2cccnc2)CCN1C[C@@H](O)C[C@@H](Cc1ccccc1)C(=O)N[C@H]1c2ccccc2C[C@H]1O [Indinavir]	5.52	6.2
Oc1c(Cl)cc(Cl)c2cccnc12 [Chloroxine]	8.88	> 40
Nc1ncnc2c1ncn2[C@@H]1O[C@H](CO)C[C@H]1O [Cordycepin]	> 40	> 40
O=C1CN2Cc3c(ccc(Cl)c3Cl)N=C2N1 [Anagrelide hydrochloride]	3.12	3.3
